Measured data: PubChem BioAssay AID686938 (Drosophila RNAi Screening Center, 2013)
In all, the deposit lists about 23,000 reagents; shown is an unselected part of those that have a named target and a result. In the full data, 75 (0.33%) got an active call. 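Raw plate signals without normalisation; calls rest on plate z-scores that were not deposited; ratio present for only 364 wells.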 The numbers tell different reagents against one gene apart. No sequences are given here. Not given: the dose of the treatment.

- Screen: 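Fly genes required for calcium entry once internal stores are emptied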 (primary screen)
- System: Drosophila S2R+ cells
- Reagent: long dsRNA against Drosophila genes, about 0.25 µg dsRNA per well, roughly 10,000 cells
- Timing: 5 days of knock-down before the calcium assay
- Treatment: thapsigargin (SERCA pump blocker) to empty calcium stores; entry signal taken 4 min after adding it
- Measurement: 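Duplicate raw fluo-4 intensities per well from a plate reader, at rest and four minutes after thapsigargin emptied calcium stores; entry-to-rest ratio filled for only some wells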
- Scale: calcium entry signal: higher = stronger calcium signal after store depletion; resting calcium signal: higher = higher resting calcium signal
- Rule for the call: 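Called when the plate z-score of the entry-to-rest ratio, mean of duplicates, falls below −3; wells with low overall dye signal (Fmax z below −2) or more than five off-targets excluded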
- Meaning of the calls: active = strongly reduced calcium entry; inactive = no strong reduction

target | reagent no. | calcium entry signal, replicate 1 (fluorescence units) | calcium entry signal, replicate 2 (fluorescence units) | resting calcium signal, replicate 1 (fluorescence units) | resting calcium signal, replicate 2 (fluorescence units) | Call
Txl | 1 | 3.55e7 | 4.57e7 | 1.76e7 | 2.08e7 | inactive
rho | 1 | 3.62e7 | 4.41e7 | 1.89e7 | 2.11e7 | inactive
Nt5b | 1 | 5.20e7 | 5.63e7 | 2.26e7 | 2.15e7 | inactive
Nt5b | 2 | 4.74e7 | 2.82e7 | 2.33e7 | 1.38e7 | inactive
Nt5b | 3 | 4.61e7 | 2.89e7 | 2.33e7 | 1.48e7 | inactive
Nt5b | 4 | 3.30e7 | 4.07e7 | 1.63e7 | 1.82e7 | inactive
CG15375 | 1 | 2.51e7 | 3.19e7 | 1.28e7 | 1.44e7 | inactive
GCC185 | 1 | 3.80e7 | 3.29e7 | 1.91e7 | 1.65e7 | inactive
Setx | 1 | 3.62e7 | 3.43e7 | 1.83e7 | 1.55e7 | inactive
CG3906 | 1 | 4.26e7 | – | 2.13e7 | – | inactive
CG33322 | 1 | 4.58e7 | 5.61e7 | 2.06e7 | 2.29e7 | inactive
dop | 1 | 3.54e7 | 4.48e7 | 1.53e7 | 3.09e7 | inactive
Cad89D | 1 | 2.94e7 | 4.86e7 | 1.65e7 | 6.73e7 | inactive
CG16890 | 1 | 3.97e7 | – | 1.78e7 | – | inactive
cic | 1 | 2.39e7 | 2.74e7 | 1.46e7 | 1.68e7 | inactive
cic | 2 | 4.72e7 | 3.82e7 | 6.06e7 | 1.75e7 | inactive
cic | 3 | 3.44e7 | 3.69e7 | 4.70e7 | 1.53e7 | inactive
cic | 4 | 5.38e7 | 5.13e7 | 2.81e7 | 2.45e7 | inactive
cic | 5 | 3.50e7 | 4.23e7 | 1.70e7 | 2.02e7 | inactive
Drsl4 | 1 | 3.05e7 | 4.33e7 | 1.49e7 | 1.67e7 | inactive
CR13656 | 1 | 2.87e7 | 3.76e7 | 1.39e7 | 1.80e7 | inactive
CR13656 | 2 | 3.31e7 | 5.16e7 | 1.81e7 | 2.18e7 | inactive
CG42812 | 1 | 3.68e7 | 5.23e7 | 2.07e7 | 2.19e7 | inactive
CG32488 | 1 | 2.88e7 | 1.77e7 | 1.41e7 | 1.09e7 | inactive
CG32488 | 2 | 3.42e7 | 4.79e7 | 1.87e7 | 2.15e7 | inactive

3 neighbouring records from above, for reference:
target | reagent no. | calcium entry signal, replicate 1 (fluorescence units) | calcium entry signal, replicate 2 (fluorescence units) | resting calcium signal, replicate 1 (fluorescence units) | resting calcium signal, replicate 2 (fluorescence units) | Call
Drsl4 | 1 | 3.05e7 | 4.33e7 | 1.49e7 | 1.67e7 | inactive
CR13656 | 1 | 2.87e7 | 3.76e7 | 1.39e7 | 1.80e7 | inactive
CR13656 | 2 | 3.31e7 | 5.16e7 | 1.81e7 | 2.18e7 | inactive
